# In patent US20100004243A1, “PHARMACEUTICAL COMPOUNDS” (Astex Therapeutics Limited, priority 2006, published 2010):
# Some results were stated once for a whole list of compounds, not compound by compound.
# Molecular target: CDK2/CyclinA (Homo sapiens, UniProt P24941)
# Assay: Activated CDK2/CyclinA kinase inhibitory activity assay, compared with CDK4
# Type: biochemical
# Procedure: Compounds of the invention were tested for kinase inhibitory activity using the following protocol.
# Activated CDK2/CyclinA (Brown et al, Nat. Cell Biol., 1, pp 438-443, 1999; Lowe, E. D., et al Biochemistry, 41, pp 15625-15634, 2002) is diluted to 125 pM in 2.5× strength assay buffer (50 mM MOPS pH 7.2, 62.5 mM β-glycerophosphate, 12.5 mM EDTA, 37.5 mM MgCl2, […], 2.5 mM DTT, 2.5 mM sodium orthovanadate, 0.25 mg/ml bovine serum albumin), and 10 μl mixed with 10 μl of histone substrate mix (60 μl bovine histone Hi (Upstate Biotechnology, 5 mg/ml), 940 μl H2O, 35 μCi γ^33P-ATP) and added to 96 well plates along with 5 μl of various dilutions of the test compound in DMSO (up to 2.5%). The reaction is allowed to proceed for 2 to 4 hours before being stopped with an excess of orthophosphoric acid (5 μl at 2%). γ^33P-ATP which remains unincorporated into the histone H1 is separated from phosphorylated histone H1 on a Millipore MAPH filter plate. The wells of the MAPH plate are wetted with 0.5% orthophosphoric acid, and then the results of the reaction are filtered with a Millipore vacuum filtration unit through the wells. Following filtration, the residue is washed twice with 200 μl of 0.5% orthophosphoric acid. Once the filters have dried, 20 μl of Microscint 20 scintillant is added, and then counted on a Packard Topcount for 30 seconds. […]
compound,measurement,value
O=C(Nc1ccc(N2CCNCC2)cn1)c1n[nH]cc1NC(=O)c1c(Cl)cccc1Cl [Example 7],fold selectivity for CDK4 relative to CDK2,greater than 5 fold
